# Measurements: the supplement of paper PMC8728848
# This is one part of the list.
# B1: Epf (Streptococcus pyogenes) (protein)
# chain: GDHGPEFNGVMVVKAAEAEELPDDLMNFKGTWEVSADGSSGRFFSKGATDSYVFHLIPAKDVKKPGWREHNEVKDSYIKIDKQSIAARYKTSTTAPYSVAFKVNTKSLIKDHDYKITFEQGQIASGITVDYRIGSAFNKTTDDSFKISDESKYASNVKIEGEEQGFKQREQGDKTISFRTLKEGPMSLVLLSKVEKKPQGDLDVEFKNLKIIDVTNPSQLDKGVAYVGNKNVQLTLKSDDGRTNFEGDEISLFNSRGELLQTVTVTKDQQNPISITLSEDQAKSLKNKEKLKVSIKQKQSKKTSKDFFFEVGIDPKVEAKQKEKLLELDKVKKQIEDSINGDAWLPEKPVDLQGDHGLSAWSHPQFEK
# What was measured:
# Assay in all cases: glycan array binding signal (z-score within array); higher = stronger binding
# Conditions in all cases: glycan notation: IUPAC condensed, linker removed
# [1] = biological target: Neu5Ac(a2-3)Gal(b1-3)GlcNAc(b1-2)Man(a1-3)[Neu5Ac(a2-3)Gal(b1-3)GlcNAc(b1-2)Man(a1-6)]Man(b1-4)GlcNAc(b1-4)GlcNAc
# How it was run: (§1)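 Negative Z-scores can be read as non-binding. The Z-score is calculated within each array and then averaged across arrays of one protein sequence at different concentrations or buffers and across linkers. Arrays, 3228 in all, were curated from the Consortium for Functional Glycomics database and kept only where the protein sequence was available.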
# [2] = biological target: Neu5Ac(a2-3)Gal(b1-3)GlcNAc(b1-3)Gal(b1-3)GlcNAc
# How it was run: as §1
# [3] = biological target: Neu5Ac(a2-3)Gal(b1-3)GlcNAc(b1-3)Gal(b1-4)GlcNAc
# How it was run: as §1
# [4] = biological target: Neu5Ac(a2-3)Gal(b1-3)GlcNAc(b1-3)GalNAc
# How it was run: as §1
# [5] = biological target: Neu5Ac(a2-3)Gal(b1-3)GlcNAc(b1-4)Gal(b1-4)Glc
# How it was run: as §1
# [6] = biological target: Neu5Ac(a2-3)Gal(b1-3)GlcNAc(b1-6)GalNAc
# How it was run: as §1
# [7] = biological target: Neu5Ac(a2-3)Gal(b1-3)GlcNAc6S
# How it was run: as §1
# [8] = biological target: Neu5Ac(a2-3)Gal(b1-3)[Fuc(a1-4)]GlcNAc
# How it was run: as §1
# [9] = biological target: Neu5Ac(a2-3)Gal(b1-3)[Fuc(a1-4)]GlcNAc(b1-3)Gal(b1-3)[Fuc(a1-4)]GlcNAc
# How it was run: as §1
# [10] = biological target: Neu5Ac(a2-3)Gal(b1-3)[Fuc(a1-4)]GlcNAc(b1-3)Gal(b1-4)[Fuc(a1-3)]GlcNAc
# How it was run: as §1
# [11] = biological target: Neu5Ac(a2-3)Gal(b1-3)[GlcNAc(b1-6)]GalNAc
# How it was run: as §1
# [12] = biological target: Neu5Ac(a2-3)Gal(b1-3)[Neu5Ac(a2-6)]GalNAc
# How it was run: as §1
# [13] = biological target: Neu5Ac(a2-3)Gal(b1-3)[Neu5Ac(a2-6)]GlcNAc(b1-3)[Fuc(a1-3)[Gal(b1-4)]GlcNAc(b1-6)]Gal(b1-4)Glc
# How it was run: as §1
# [14] = biological target: Neu5Ac(a2-3)Gal(b1-3)]Neu5Ac(a2-3)Gal(b1-4)]GlcNAc
# How it was run: as §1
# [15] = biological target: Neu5Ac(a2-3)Gal(b1-4)Glc
# How it was run: as §1
# [16] = biological target: Neu5Ac(a2-3)Gal(b1-4)GlcNAc
# How it was run: as §1
# [17] = biological target: Neu5Ac(a2-3)Gal(b1-4)GlcNAc(b1-2)Man
# How it was run: as §1
# [18] = biological target: Neu5Ac(a2-3)Gal(b1-4)GlcNAc(b1-2)Man(a1-3)[GlcNAc(b1-4)][Neu5Ac(a2-3)Gal(b1-4)GlcNAc(b1-2)Man(a1-6)]Man(b1-4)GlcNAc(b1-4)GlcNAc
# How it was run: as §1
# [19] = biological target: Neu5Ac(a2-3)Gal(b1-4)GlcNAc(b1-2)Man(a1-3)[Neu5Ac(a2-3)Gal(b1-4)GlcNAc(b1-2)Man(a1-6)]Man(b1-4)GlcNAc(b1-4)GlcNAc
# How it was run: as §1
# [20] = biological target: Neu5Ac(a2-3)Gal(b1-4)GlcNAc(b1-2)Man(a1-3)[Neu5Ac(a2-3)Gal(b1-4)GlcNAc(b1-2)Man(a1-6)]Man(b1-4)GlcNAc(b1-4)[Fuc(a1-6)]GlcNAc
# How it was run: as §1
# [21] = biological target: Neu5Ac(a2-3)Gal(b1-4)GlcNAc(b1-2)Man(a1-3)[Neu5Ac(a2-6)Gal(b1-4)GlcNAc(b1-2)Man(a1-6)]Man(b1-4)GlcNAc(b1-4)GlcNAc
# How it was run: as §1
# [22] = biological target: Neu5Ac(a2-3)Gal(b1-4)GlcNAc(b1-2)[Neu5Ac(a2-3)Gal(b1-4)GlcNAc(b1-4)]Man(a1-3)[GlcNAc(b1-4)][Neu5Ac(a2-3)Gal(b1-4)GlcNAc(b1-2)[Neu5Ac(a2-3)Gal(b1-4)GlcNAc(b1-6)]Man(a1-6)]Man(b1-4)GlcNAc(b1-4)GlcNAc
# How it was run: as §1
# [23] = biological target: Neu5Ac(a2-3)Gal(b1-4)GlcNAc(b1-2)[Neu5Ac(a2-3)Gal(b1-4)GlcNAc(b1-4)]Man(a1-3)[GlcNAc(b1-4)][Neu5Ac(a2-3)Gal(b1-4)GlcNAc(b1-4)Man(a1-6)]Man(b1-4)GlcNAc(b1-4)GlcNAc
# How it was run: as §1
# [24] = biological target: Neu5Ac(a2-3)Gal(b1-4)GlcNAc(b1-2)[Neu5Ac(a2-3)Gal(b1-4)GlcNAc(b1-6)]Man(a1-6)[Neu5Ac(a2-3)Gal(b1-4)GlcNAc(b1-2)Man(a1-3)]Man(b1-4)GlcNAc(b1-4)GlcNAc
# How it was run: as §1
# [25] = biological target: Neu5Ac(a2-3)Gal(b1-4)GlcNAc(b1-2)[Neu5Ac(a2-3)Gal(b1-4)GlcNAc(b1-6)]Man(a1-6)[Neu5Ac(a2-3)Gal(b1-4)GlcNAc(b1-2)Man(a1-3)][GlcNAc(b1-4)]Man(b1-4)GlcNAc(b1-4)GlcNAc
# How it was run: as §1
# [26] = biological target: Neu5Ac(a2-3)Gal(b1-4)GlcNAc(b1-3)Gal
# How it was run: as §1
# [27] = biological target: Neu5Ac(a2-3)Gal(b1-4)GlcNAc(b1-3)Gal(b1-3)GlcNAc
# How it was run: as §1
# [28] = biological target: Neu5Ac(a2-3)Gal(b1-4)GlcNAc(b1-3)Gal(b1-4)GlcNAc
# How it was run: as §1
# [29] = biological target: Neu5Ac(a2-3)Gal(b1-4)GlcNAc(b1-3)Gal(b1-4)GlcNAc(b1-2)Man(a1-3)[Neu5Ac(a2-3)Gal(b1-4)GlcNAc(b1-3)Gal(b1-4)GlcNAc(b1-2)Man(a1-6)]Man(b1-4)GlcNAc(b1-4)GlcNAc
# How it was run: as §1
# [30] = biological target: Neu5Ac(a2-3)Gal(b1-4)GlcNAc(b1-3)Gal(b1-4)GlcNAc(b1-3)Gal(b1-4)GlcNAc
# How it was run: as §1
# [31] = biological target: Neu5Ac(a2-3)Gal(b1-4)GlcNAc(b1-3)Gal(b1-4)GlcNAc(b1-3)Gal(b1-4)GlcNAc(b1-2)Man(a1-3)[Neu5Ac(a2-3)Gal(b1-4)GlcNAc(b1-3)Gal(b1-4)GlcNAc(b1-3)Gal(b1-4)GlcNAc(b1-2)Man(a1-6)]GalNAc
# How it was run: as §1
# [32] = biological target: Neu5Ac(a2-3)Gal(b1-4)GlcNAc(b1-3)Gal(b1-4)GlcNAc(b1-3)GalNAc
# How it was run: as §1
# [33] = biological target: Neu5Ac(a2-3)Gal(b1-4)GlcNAc(b1-3)Gal(b1-4)GlcNAc(b1-3)[Neu5Ac(a2-3)Gal(b1-4)GlcNAc(b1-3)Gal(b1-4)GlcNAc(b1-6)]GalNAc
# How it was run: as §1
# [34] = biological target: Neu5Ac(a2-3)Gal(b1-4)GlcNAc(b1-3)Gal(b1-4)GlcNAc(b1-6)[Gal(b1-3)]GalNAc
# How it was run: as §1
# [35] = biological target: Neu5Ac(a2-3)Gal(b1-4)GlcNAc(b1-3)Gal(b1-4)[Fuc(a1-3)]GlcNAc
# How it was run: as §1
# [36] = biological target: Neu5Ac(a2-3)Gal(b1-4)GlcNAc(b1-3)GalNAc
# How it was run: as §1
# [37] = biological target: Neu5Ac(a2-3)Gal(b1-4)GlcNAc(b1-3)[Neu5Ac(a2-3)Gal(b1-4)GlcNAc(b1-6)]GalNAc
# How it was run: as §1
# [38] = biological target: Neu5Ac(a2-3)Gal(b1-4)GlcNAc(b1-6)GalNAc
# How it was run: as §1
binder,measurement,setting,value
B1,glycan array binding signal (z-score),[1],-0.716
same,glycan array binding signal (z-score),[2],-0.504
same,glycan array binding signal (z-score),[3],-1.25
same,glycan array binding signal (z-score),[4],-0.671
same,glycan array binding signal (z-score),[5],-1.15
same,glycan array binding signal (z-score),[6],1.66
same,glycan array binding signal (z-score),[7],0.36
same,glycan array binding signal (z-score),[8],-1.01
same,glycan array binding signal (z-score),[9],0.998
same,glycan array binding signal (z-score),[10],0.666
same,glycan array binding signal (z-score),[11],0.505
same,glycan array binding signal (z-score),[12],-0.975
same,glycan array binding signal (z-score),[13],-0.194
same,glycan array binding signal (z-score),[14],0.647
same,glycan array binding signal (z-score),[15],0.62
same,glycan array binding signal (z-score),[16],-0.467
same,glycan array binding signal (z-score),[17],1.89
same,glycan array binding signal (z-score),[18],0.694
same,glycan array binding signal (z-score),[19],-0.049
same,glycan array binding signal (z-score),[20],-0.499
same,glycan array binding signal (z-score),[21],-0.643
same,glycan array binding signal (z-score),[22],-1.09
same,glycan array binding signal (z-score),[23],0.124
same,glycan array binding signal (z-score),[24],-0.195
same,glycan array binding signal (z-score),[25],-0.742
same,glycan array binding signal (z-score),[26],-1.72
same,glycan array binding signal (z-score),[27],-0.595
same,glycan array binding signal (z-score),[28],-0.961
same,glycan array binding signal (z-score),[29],1.33
same,glycan array binding signal (z-score),[30],-0.329
same,glycan array binding signal (z-score),[31],0.472
same,glycan array binding signal (z-score),[32],-0.677
same,glycan array binding signal (z-score),[33],0.176
same,glycan array binding signal (z-score),[34],1.71
same,glycan array binding signal (z-score),[35],-0.954
same,glycan array binding signal (z-score),[36],1.66
same,glycan array binding signal (z-score),[37],1.07
same,glycan array binding signal (z-score),[38],-0.868

# Copied from the entries so far (2 entries):
binder,measurement,setting,value
B1,glycan array binding signal (z-score),[21],-0.643
same,glycan array binding signal (z-score),[22],-1.09
